{"source": "PubChem BioAssay AID720627", "about": "(Broad Institute, 2013)", "assay": "PubChem AID 720627", "details": "C2C12 HRAS, caspase 3/7 luminescence, apoptosis; at 35 µM (top of the series)", "note": "Some of the results follow. The source made no clear call on entries shown without one.", "data": [{"molecule": "CO[C@H]1C[C@@H]2CC[C@@H](C)[C@@](O)(O2)C(=O)C(=O)N2CCCC[C@H]2C(=O)O[C@H]([C@H](C)C[C@@H]2CC[C@@H](O)[C@H](OC)C2)CC(=O)[C@H](C)/C=C(\\C)[C@@H](O)[C@@H](OC)C(=O)[C@H](C)C[C@H](C)/C=C/C=C/C=C/1C", "values": [{"measurement": "caspase activation", "result": 105, "unit": "%"}]}]}
